Earlier results as cited in US20220362210A1 (Luckwel Pharmaceuticals Inc., priority 2021, published 2022).
Counter-ions that a name gives are not always drawn.

Columns and labels:
[1] = wide range of pharmaceutical formulations
[2] = geriatric population compared with young adults

For `CC(C)c1c(C(=O)Nc2ccccc2)c(-c2ccccc2)c(-c2ccc(F)cc2)n1CC[C@@H](O)C[C@@H](O)CC(=O)O` (relative stereo) [Atorvastatin, [R—(R*,R*)]-2-(4-fluorophenyl)-β,δ-dihydroxy-5-(1-methylethyl)-3-phenyl-4-[(phenylamino)carbonyl]-1H-pyrrole-1-heptanoic acid, calcium salt (2:1)], the “time to reach maximum plasma concentrations” value (dosed between 10 and 80 mg once daily) is given as 1 to 2 h, the “AUC, geriatric population versus young adults” value [2] is given as 30 % higher and the “Cmax, geriatric population versus young adults” value [2] is given as 40 % higher. The “Cmax in patients with hepatic insufficiency” value (hepatic insufficiency (e.g., chronic alcoholic liver disease)) was 4 times higher, the “AUC, women versus men” value (women compared with men) was 10 % lower and the “Cmax, women versus men” value (women compared with men) was 20 % higher. For the same compound, the “stability in pharmaceutical formulations” value [1] was “stable”.
